From US20240010748A1
No constants are given. Whether binding was seen depends on the method and setting.

Amino acid sequences for entries named in this document (tags omitted). A change or cut given only in a name is not applied to a line headed by its entry. Chains listed by the source or under a name are the forms on record and can include a tag or linker.
human Claudin 18.2 (hCLDN18.2) on stably-transfected HEK293 cells (P56856, form named): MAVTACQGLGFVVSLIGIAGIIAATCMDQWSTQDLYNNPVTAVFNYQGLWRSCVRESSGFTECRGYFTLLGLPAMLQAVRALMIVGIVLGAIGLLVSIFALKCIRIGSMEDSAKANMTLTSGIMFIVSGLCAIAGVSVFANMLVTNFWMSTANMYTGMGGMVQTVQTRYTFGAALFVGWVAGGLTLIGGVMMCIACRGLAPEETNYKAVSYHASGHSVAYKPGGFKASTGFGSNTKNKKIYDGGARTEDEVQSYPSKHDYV

Target: human Claudin 18.2 (hCLDN18.2) on stably-transfected HEK293 cells (human) (UniProt P56856)
Experiment: FACS on HEK293-hCLDN18.2 cells, fluorescent anti-human IgG secondary antibody

- binding: no binding (tested: 1e-7 M (log M -7))
B1: h160C9AA (antibody, human IgG1, lambda, L234A L235A, V domains shown)
VH: EVKLVESGGGLVQPGGSLKLSCAASGFTFNTYAMNWVRQAPGKGLEWVARIRSKYNNYATYYADSVKDRFTISRDDAKNTLYLQMNNLRTEDTAVYYCVRHGNFGNSYVSWFAYWGQGTLVTVSS
VL: QAVVTQEPSLTVSPGGTVTLTCRSSTGAVTTSNYANWVQQKPGQAPRGLIGGTNKRAPGTPARFSGSLLGGKAALTLSGAQPEDEAEYYCALWYSNLWVFGGGTKLTVLG
